# Assay results reported in patent publication US9233067B2, “Silk particles for controlled and sustained delivery of compounds” (Amsilk GmbH, priority 2009, dated 2016).
# Structures can show the parent of a compound that is named as a salt.
# What was measured:
# [1] = test system: eADF4(C16) particles; experiment: Drug loading of eADF4(C16) particles (residual drug in supernatant by UV-Vis); type: physicochemical; details: 21 nmol silk protein, 0.21 μmol model drug, 10 min, room temperature; for Experimental drug content: wt drug/wt spider silk protein particles
# [2] = test system: C16 spider silk particles; experiment: Loading of C16 spider silk particles with lysozyme (Micro BCA of supernatant); type: physicochemical; details: 30% w/w-ratio, pH 7.0
Molecule,Encapsulation efficiency (loading efficiency) [1],Experimental drug content [1],further results
"CN[C@@H](C)[C@H](O)c1ccccc1 [Ephedrine*HCl, Ephedrine]",20.7%,0.88 w/w %,
CCOc1ccc2nc3cc(N)ccc3c(N)c2c1 [Ethacridine lactate],,7.07 w/w %,Encapsulation efficiency (loading efficiency) ([1]; listed as Ethacridine lactat): 98.2%; Encapsulation efficiency (loading efficiency) ([1]; listed as ethacridine lactate): more than 98%
"COc1ccc(Cc2nccc3cc(OC)c(OC)cc23)cc1OC [Papaverine*HCl, Papaverine]",47.0%,3.71 w/w %,
"CCN(CC)CCOC(=O)c1ccc(N)cc1 [Procaine*HCl, Procaine]",38.0%,2.16 w/w %,
"CC(C)NCC(O)COc1cccc2ccccc12 (centres unmarked) [Propranolol*HCl, Propranolol]",,2.78 w/w %,
"CCCCNc1ccc(C(=O)OCCN(C)C)cc1 [Tetracaine*HCl, Tetracaine]",53.0%,3.34 w/w %,
Lysozyme: protein compound with an isoelectric point of 11.35 and a molecular weight of 14.3 kDa,,,loading ([2]; 30 mM ionic strength): 28%; loading ([2]; 60 mM ionic strength): 24%; loading ([2]; 100 mM ionic strength): 20%
Methyl violet,98.1%,8.37 w/w %,
